Measurements: patent US20250388667A1
No constants are given. Whether binding was seen depends on the method and setting. Some results given as binding are weak or reduced against the parent protein; the word gives no strength.

Experiments:
[1] = target: T1, mouse mNectin-4 protein (ACRO, NE4-M52H3) (mouse) (UniProt Q8R007); test: ELISA, antigen coated, HRP-labeled anti-human-Kappa secondary antibody
T1 sequence (looked up): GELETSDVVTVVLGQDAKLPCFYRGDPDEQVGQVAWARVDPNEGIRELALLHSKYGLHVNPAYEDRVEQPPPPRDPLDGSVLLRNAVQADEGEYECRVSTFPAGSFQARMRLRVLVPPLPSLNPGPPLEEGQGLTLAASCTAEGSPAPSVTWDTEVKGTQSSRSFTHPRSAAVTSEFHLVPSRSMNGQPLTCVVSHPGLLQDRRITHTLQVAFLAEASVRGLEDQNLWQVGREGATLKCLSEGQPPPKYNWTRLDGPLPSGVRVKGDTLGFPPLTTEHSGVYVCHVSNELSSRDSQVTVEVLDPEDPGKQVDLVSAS

[2] = target: monkey cNectin-4 protein (ACRO, NE4-C52H4) (cynomolgus monkey); test: as above
[3] = target: T1, mouse mNectin-4 protein (ACRO, NE4-M52H3) (mouse); test: ELISA, antigen coated

Measured: binding

B1: reference antibody ASG-22 (antibody, human IgG1, kappa, V domains shown)
VH: EVQLVESGGGLVQPGGSLRLSCAASGFTFSSYNMNWVRQAPGKGLEWVSYISSSSSTIYYADSVKGRFTISRDNAKNSLSLQMNSLRDEDTAVYYCARAYYYGMDVWGQGTLVTVSS
VL: DIQMTQSPSSVSASVGDRVTITCRASQGISGWLAWYQQKPGKAPKFLIYAASTLQSGVPSRFSGSGSGTDFTLTISSLQPEDFATYYCQQANSFPPTFGGGTKVEIKR
binds: all assays above
